Laboratory results from PubChem BioAssay (EPA / NIEHS).
“And” between values parts separate entries of the source, which are not always exact repeats. Equal values may be shown once. Inconclusive means that the source gave no clear call. Such entries were picked first, then a sample of the others. For part of these data: Where the call is inconclusive, the potency comes from a doubtful curve fit. The source made the active and inactive calls. Rule for the calls: active = hit-call score of the fitted dose curve at least 0.9, where 1 is the maximum; inconclusive = response in the unintended direction; inactive = score below 0.9.

Sequences of proteins named here, by UniProt entry; tags and fusion partners are left off. A change or cut given only in a name is not applied to a line headed by its entry.
UniProt Q96RI1: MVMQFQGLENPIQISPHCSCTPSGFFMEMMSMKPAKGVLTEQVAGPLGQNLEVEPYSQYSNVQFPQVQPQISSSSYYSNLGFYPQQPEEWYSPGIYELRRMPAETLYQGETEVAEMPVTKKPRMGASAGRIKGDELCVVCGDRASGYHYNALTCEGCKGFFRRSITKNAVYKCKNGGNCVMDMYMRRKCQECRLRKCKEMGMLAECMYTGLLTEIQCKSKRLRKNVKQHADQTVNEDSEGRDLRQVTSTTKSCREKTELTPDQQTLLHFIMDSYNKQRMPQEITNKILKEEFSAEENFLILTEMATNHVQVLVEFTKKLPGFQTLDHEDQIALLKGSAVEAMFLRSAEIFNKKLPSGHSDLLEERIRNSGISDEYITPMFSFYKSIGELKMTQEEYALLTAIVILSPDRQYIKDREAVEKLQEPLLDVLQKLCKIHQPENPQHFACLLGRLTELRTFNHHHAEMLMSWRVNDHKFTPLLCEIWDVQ
UniProt P19793: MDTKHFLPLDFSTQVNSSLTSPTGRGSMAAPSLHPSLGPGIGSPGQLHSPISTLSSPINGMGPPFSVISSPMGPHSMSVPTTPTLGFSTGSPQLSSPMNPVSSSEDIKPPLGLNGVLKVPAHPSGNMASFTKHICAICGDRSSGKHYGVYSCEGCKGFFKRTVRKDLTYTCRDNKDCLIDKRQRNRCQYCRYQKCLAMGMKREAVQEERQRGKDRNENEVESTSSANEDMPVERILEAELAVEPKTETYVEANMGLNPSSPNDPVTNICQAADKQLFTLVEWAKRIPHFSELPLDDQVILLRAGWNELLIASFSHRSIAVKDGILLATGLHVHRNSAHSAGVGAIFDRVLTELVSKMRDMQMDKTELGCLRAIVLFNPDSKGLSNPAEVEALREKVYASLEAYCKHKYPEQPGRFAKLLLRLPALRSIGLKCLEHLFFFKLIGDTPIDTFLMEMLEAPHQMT
UniProt P04637, whole entry, looked up: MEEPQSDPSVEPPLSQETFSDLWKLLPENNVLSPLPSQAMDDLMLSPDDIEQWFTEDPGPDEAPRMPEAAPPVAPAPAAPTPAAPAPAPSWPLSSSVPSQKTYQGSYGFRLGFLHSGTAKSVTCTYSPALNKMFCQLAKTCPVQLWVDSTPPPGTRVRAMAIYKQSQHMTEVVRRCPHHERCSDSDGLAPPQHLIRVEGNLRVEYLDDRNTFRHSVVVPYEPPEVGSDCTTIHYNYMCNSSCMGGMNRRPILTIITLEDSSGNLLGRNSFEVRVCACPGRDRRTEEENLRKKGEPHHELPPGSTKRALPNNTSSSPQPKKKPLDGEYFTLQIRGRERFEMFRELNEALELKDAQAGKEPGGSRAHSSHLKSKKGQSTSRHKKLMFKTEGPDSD

Tests used:
[1] = biological target: Bile acid receptor (Homo sapiens) (UniProt Q96RI1); assay: OT_FXR_FXRSRC1_0480: Odyssey Thera (OT) 8-hour HEK293T Protein-Complementation Assay for Farnesoid X receptor/SRC-1 Co-activator (AID 2283383)
How it was run: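 PCA, HEK293T, 8 h compound exposure; FXR–SRC-1 binding reconstitutes split reporter; fluorescence intensity; positive-direction fit vs DMSO.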

[2] = biological target: Bile acid receptor (Homo sapiens) (UniProt Q96RI1); assay: OT_FXR_FXRSRC1_1440: Odyssey Thera (OT) 24-hour HEK293T Protein-Complementation Assay for Farnesoid X receptor/SRC-1 Co-activator (AID 2283384)
How it was run: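 Measures ligand-driven FXR–SRC-1 co-activator recruitment in HEK293T via fragment complementation, fluorescence intensity at 24 h. DMSO served as negative control and baseline for gain-of-signal fitting.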

[3] = biological target: Retinoic acid receptor RXR-alpha (Homo sapiens) (UniProt P19793); assay: OT_NURR1_NURR1RXRa_1440: Odyssey Thera (OT) 24-hour HEK293T Protein Complementation Assay for Nurr1/retinoid X receptor (RXR) (AID 2283386)
How it was run: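 Steps: fragment-tagged Nurr1 and RXRα expressed in HEK293T; compounds added; after 24 h, complemented reporter quantified by fluorescence intensity; signal increase over DMSO fitted as the single endpoint.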

[4] = ATG_XTT_Cytotoxicity: Cytotoxicity Assessment in the Attagene TRANS-FACTORIAL HepG2 Assay (AID 2283584);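 note: XTT signal for cell number as viability in transfected HepG2 cells; cells exposed to compound for 24 h before reading; active means loss of viability signal versus DMSO baseline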
How it was run: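 HepG2 cells transiently transfected with GAL4-UAS multiple reporter units, dosed 24 h; cytotoxicity read by XTT as loss of signal versus DMSO baseline.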

[5] = TOX21_p53_BLA_p2_viability: Viability Assessment in the Tox21 HCT-116 p53 Agonism Beta-lactamase Assay, Phase 2 (AID 2283591);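 note: actives lower the ATP signal meaning cytotoxicity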
How it was run: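 HCT116 p53-bla cells, 4000/well, dosed after 5 h plating (217-fold dilution of DMSO stocks) and incubated 16 h at 37C. Viability taken as cellular ATP by CellTiter-Glo luminescence after 30 min RT; signal loss marks cytotoxicity.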

[6] = TOX21_p53_BLA_p3_viability: Viability Assessment in the Tox21 HCT-116 p53 Agonism Beta-lactamase Assay, Phase 3 (AID 2283593);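 note: cells exposed to compound for 16 h before reading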
How it was run: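 HCT116 cells, 4000/well, dosed 5 h after plating by pin transfer (217-fold dilution from DMSO stock) and incubated 16 h at 37C, 5% CO2. Viability read as ATP luminescence with CellTiter-Glo after 30 min at room temperature.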

[7] = TOX21_p53_BLA_p4_viability: Viability Assessment in the Tox21 HCT-116 p53 Agonism Beta-lactamase Assay, Phase 4 (AID 2283597);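 note: hits lower the luminescence signal meaning cytotoxicity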
How it was run: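 4000 HCT116 cells per well; 5 h attachment; compounds from DMSO, 217-fold dilution; 16 h at 37C. Then CCF4-AM, 2 h RT, followed by CellTiter-Glo, 30 min RT, luminescence. Decrease = cytotoxicity.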

[8] = biological target: Cellular tumor antigen p53 (Homo sapiens) (UniProt P04637); assay: TOX21_p53_BLA_p5_ratio: Tox21 HCT-116 p53 Agonism Beta-lactamase Assay, Ratio, Phase 5 (AID 2283599)
How it was run: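 HCT-116 p53-bla cells (4000/well) plated 5 h, dosed with compound (217-fold DMSO dilution) for 16 h at 37 C; CCF4-AM substrate 2 h at room temperature. Activity is the 460/530 nm emission ratio (405 nm excitation), fitted in gain-of-signal direction versus DMSO.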

[9] = TOX21_p53_BLA_p5_viability: Viability Assessment in the Tox21 HCT-116 p53 Agonism Beta-lactamase Assay, Phase 5 (AID 2283600)
How it was run: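 Decreased CellTiter-Glo luminescence denotes lost viability. Exposure: 16 h at 37C, 5% CO2, with compounds from DMSO stocks diluted 217-fold in wells of 4000 cells.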

[10] = biological target: Cellular tumor antigen p53 (Homo sapiens) (UniProt P04637); assay: TOX21_p53_BLA_p4_ratio: Tox21 HCT-116 p53 Agonism Beta-lactamase Assay, Ratio, Phase 4 (AID 2283601)
How it was run: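 HCT-116 p53 beta-lactamase reporter cells (4000/well) preincubated 5 h, then compound (217-fold dilution of DMSO stock) for 16 h at 37C. CCF4-AM substrate added 2 h at room temperature; 460/530 nm emission ratio fitted upward versus DMSO.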

[11] = biological target: Retinoic acid receptor RXR-alpha (Homo sapiens) (UniProt P19793); assay: OT_NURR1_NURR1RXRa_0480: Odyssey Thera (OT) 8-hour HEK293T Protein Complementation Assay for Nurr1/retinoid X receptor (RXR) (AID 2283385)
How it was run: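 Interaction of bait and prey reconstitutes a functional reporter, whose fluorescence was measured in HEK293T cells dosed with compound for 8 hours. Signal gain relative to DMSO defined the single endpoint.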

## COCCl
[1]
  outcome: inactive
[2]
  outcome: inactive
[3]
  AC50: inconclusive: 1.4 µM
[4]
  AC50: inconclusive: 35 µM
[5]
  AC50: inconclusive: 16.1 µM and inconclusive: 75.1 µM
[6]
  AC50: inconclusive: 29.4 µM and inconclusive: 43.2 µM
[7]
  AC50: inconclusive: 4.84 µM
[8]
  AC50: inconclusive: 16.1 µM and inconclusive: 43.2 µM
[9]
  outcome: inactive
[10]
  AC50: inconclusive: 0.0604 nM

## CCCCc1ccc(O)cc1
[1]
  outcome: inactive
[2]
  AC50: active: 67.9 µM
[3]
  outcome: inactive
[5]
  AC50: inconclusive: 220 nM
[6]
  AC50: inconclusive: 46 µM
[9]
  AC50: inconclusive: 46 µM

## Nc1ccc(N=Nc2ccccc2)cc1
[2]
  AC50: active: 12.2 µM
[11]
  AC50: inconclusive: 50 µM
  outcome: inactive
[3]
  AC50: inconclusive: 50 µM
[4]
  AC50: inconclusive: 0.325 µM
[7]
  outcome: inactive
[8]
  outcome: inactive
[10]
  outcome: inactive
